Measured values taken from the supplement of paper PMC12823440, “Inhibitors supercharge kinase turnover through native proteolytic circuits” (Nature, 2025).
Where a name gives a salt, the structure may show the parent alone. Some of the results follow. Hit calls seldom repeat between salt and free forms of one compound.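 Kinases, fused to nanoluciferase, were expressed in K562 cells; luminescence was measured every 4 h from 2 to 18 h as percent of control (DMSO = 100%, positive control = 0%). A time point is decreased if signal falls significantly (2 sigma). Hits were called by the authors by a rule that is not shown; the count of time points alone does not decide it.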

System: BRAF_V600E
Assay: number of time points (of 5) at which kinase-Nluc abundance scored as decreased, DMSO-normalised (count); higher = more persistent destabilization
Conditions: K562; 2-18 h

Structure (SMILES)	number of time points
N#Cc1cnc2c(Cl)cc(NCc3cn(CCN4CCCCCC4)nn3)cc2c1Nc1ccc(F)c(Cl)c1 [Cot inhibitor-1] (10 µM)	0
Cc1cc(Nc2cc(N)ncn2)c(=O)n2c1C(=O)NC21CCCCC1 [Tomivosertib] (10 µM)	0
CC(Cc1ccc(O)c(O)c1)C(C)Cc1ccc(O)c(O)c1 (stereo not drawn) [Nordihydroguaiaretic acid] (2.5 µM)	0
CNC(=O)c1ccc2c(C(=Nc3cccc(CN(C)C)c3)c3ccccc3)c(O)[nH]c2c1 [MEK inhibitor] (10 µM)	0
COC(=O)[C@H](CCSC)NC(=O)c1ccc(NC[C@@H](N)CS)cc1-c1ccccc1 [FTI-277 (hydrochloride)] (10 µM)	0
C=CC(=O)Nc1ccc(C(=O)Nc2[nH]nc3c2CN(C(=O)N[C@H](CN(C)C)c2ccccc2)C3(C)C)cc1 (10 µM)	4
CCN(CC)CCCC(C)Nc1nc(C)cc(Nc2ccc3nc(C)cc(N)c3c2)n1 (stereo not drawn) (10 µM)	0
COc1cc(F)ccc1-c1ncnc(Nc2cccc(C[S@](C)(=N)=O)c2)n1 [Atuveciclib] (2.5 µM)	2
O=C(c1cccc(Cl)c1F)N1CCN(Cc2cccc(Nc3nccs3)n2)CC1 (2.5 µM)	0
N#Cc1ccc(-c2cnc3ccc(-c4ccc(C(=O)N5CCOCC5)cc4)cn23)cc1 (10 µM)	0
Cc1ccc(C(=O)NC2CC2)cc1-n1ncc(C(=O)c2cccc(C#N)c2)c1N [Acumapimod] (10 µM)	0
N#Cc1ccc(-c2cnc3[nH]cc(NC(=O)c4cccnc4)c3c2)cc1 (10 µM)	0
CC1(N)CCN(c2cccnc2NC(=O)c2nc(-c3ncccc3C(F)(F)F)cnc2N)CC1 [Darovasertib] (10 µM)	0
COc1cc(N2CCC(N3CCN(C)CC3)CC2)ccc1Nc1ncc(Cl)c(-c2c[nH]c3ccccc23)n1 (2.5 µM)	0
CN1CCN(c2ccc(Nc3ncc4cc(C#N)c(=O)n(C5CCCC5)c4n3)cc2)CC1 (10 µM)	0
CO[C@H]1CC[C@H](N2C(=O)CNc3ncc(-c4ccc(C(C)(C)O)nc4)nc32)CC1 (2.5 µM)	1
Cc1c(C(=O)Nc2ccc(Oc3ccnc4[nH]cc(-c5ccccc5)c34)c(F)c2)c(=O)n(-c2ccc(F)cc2)n1C (10 µM)	1
COc1ccc(Nc2ncc(C(F)(F)F)c(NC3CC3)n2)cc1OC (10 µM)	3
C[C@@H]1O[C@@H](Oc2cc(O)c3c(=O)c(O[C@@H]4O[C@@H](C)[C@H](O)[C@@H](O)[C@H]4O)c(-c4ccc(O)cc4)oc3c2)[C@H](O)[C@H](O)[C@H]1O [Kaempferitrin] (10 µM)	0

Structure (SMILES)	number of time points
COC(=O)Nc1ccc(-c2nc(N3CCOCC3)c3cnn(C4CCN(Cc5cccnc5)CC4)c3n2)cc1 (10 µM)	0
CC(C)Oc1ccc(F)c(-c2cnc(N)c(C(=O)Nc3cnccc3N3CCC[C@@H](C(=O)O)C3)n2)c1 (2 µM)	1
O=Nc1c(-c2c(O)[nH]c3cc(Br)ccc23)[nH]c2ccccc12 [GSK 3 Inhibitor IX] (2.5 µM)	0
NCC1CCC(CNc2nc(NCc3ccccc3OC(F)(F)F)ncc2[N+](=O)[O-])CC1 (stereo not drawn) [PKC-theta inhibitor] (10 µM)	0
N[C@@H]1CCCN(c2c(/C=C3\SC(=O)NC3=O)cccc2-c2ccccc2)C1 (10 µM)	1
CCn1c(-c2nonc2N)nc2c(C#CC(C)(C)O)ncc(OC[C@H]3CCCNC3)c21 (10 µM)	0
CNC(=O)c1cc2c(Oc3ccc(NC(=O)C4(C(=O)Nc5ccc(F)cc5)CC4)cc3)ccnc2cc1OC (2.5 µM)	3
C=CC(=O)N1CC[C@@H](Oc2nc(Nc3ccc(N4CCC(N5CCN(C)CC5)CC4)cc3)c(C(N)=O)nc2CC)C1 [Naquotinib (mesylate)] (2.5 µM)	0
C=CC(=O)Nc1cc(Nc2nccc(-c3cn(C)c4ccccc34)n2)c(OC)cc1OCCN(C)C [Rezivertinib] (2.5 µM)	0
Oc1c(F)cc(-c2cnccc2-c2ccc(N3CCOCC3)cc2)cc1F (10 µM)	0
Brc1ccc(CSc2nc3ccccc3o2)cc1 [BMP signaling agonist sb4] (10 µM)	0
O=C1OC(/C=C/c2ccccc2)=NC/1=C\c1cccnc1 (10 µM)	0
O=C(NCCN1CCOCC1)Nc1nc2ccc(Sc3nnc4ccc(-c5ccc(F)cc5)nn34)cc2s1 (10 µM)	0
Cn1c(CNc2cccc(C(=O)NCc3ccccc3C(F)(F)F)c2)nnc1-c1ccncc1 (10 µM)	0
COc1cc2cc(Oc3ccc4ccc(=O)oc4c3)c(=O)oc2cc1O [Daphnoretin] (10 µM)	0
O=C(O)c1cc(N(Cc2ccccc2O)Cc2cc(O)ccc2O)ccc1O [Lavendustin A] (10 µM)	2
Cc1c(Cl)cccc1S(=O)(=O)Nc1nc(NCCc2ccccc2)nc2c1CN(Cc1ccccc1)CC2 (2.5 µM)	0
CO[C@H]1C[C@@H]2CC[C@@H](C)[C@@](O)(O2)C(=O)C(=O)N2CCCC[C@H]2C(=O)O[C@H]([C@H](C)C[C@@H]2CC[C@@H](OC(=O)C(C)(CO)CO)[C@H](OC)C2)CC(=O)[C@H](C)/C=C(\C)[C@@H](O)[C@@H](OC)C(=O)[C@H](C)C[C@H](C)/C=C/C=C/C=C/1C [Temsirolimus] (2.5 µM)	0
O=C1Nc2ccc(CN3C(=O)CSC3=O)cc2/C1=C/c1cc(CN2CCOCC2)c[nH]1 (10 µM)	0

Another view of 3 compounds above:
Structure (SMILES) | number of time points
C=CC(=O)Nc1cc(Nc2nccc(-c3cn(C)c4ccccc34)n2)c(OC)cc1OCCN(C)C [Rezivertinib] (2.5 µM) | 0
Oc1c(F)cc(-c2cnccc2-c2ccc(N3CCOCC3)cc2)cc1F (10 µM) | 0
Brc1ccc(CSc2nc3ccccc3o2)cc1 [BMP signaling agonist sb4] (10 µM) | 0
